# Several values for one entry are separate records, joined by “and”; a condition that tells them apart may be missing. Equal values may be shown once. This is one part of the list. Single values are uncertain here, since repeats match poorly.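 HEK293T cells were given each compound shortly before transfection with a reporter in which red mCherry is followed by the SARS-CoV-2 frameshift element and then GFP in the −1 frame, so GFP appears only after frameshifting.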
# System: HEK293T
# Experiment: percent viability (nuclei count) relative to control; higher = more viable cells
# Settings: 10 µM; 24 h
row,Structure (SMILES),percent viability
1,CCCCC[C@H](O)/C=C/[C@H]1[C@H](O)CC(=O)[C@@H]1C/C=C\CCCC(=O)O [dinoprostone],183% and 242%
2,N#CC[C@H](C1CCCC1)n1cc(-c2ncnc3[nH]ccc23)cn1 [Ruxolitinib],373%
3,CCC[C@H](N[C@@H](C)C(=O)N1[C@H](C(=O)O)C[C@@H]2CCCC[C@@H]21)C(=O)OCC,378%
4,CCCNC(C)C(=O)Nc1ccccc1C (configuration not stated) [prilocaine],271%
5,CCC1=C[C@@H]2CN(C1)Cc1c([nH]c3ccccc13)[C@@](C(=O)OC)(c1cc3c(cc1OC)N(C)[C@H]1[C@@](O)(C(=O)OC)[C@H](OC(C)=O)[C@]4(CC)C=CCN5CC[C@]31[C@@H]54)C2,15.5%
6,C=C1CC[C@H](O)C/C1=C/C=C1\CCC[C@]2(C)[C@@H]([C@H](C)/C=C/[C@H](C)C(C)C)CC[C@@H]12,133%
7,COc1cc(/C=C/C(=O)N2CCCCCCC2)cc(OC)c1OC [cinoctramide],24.3%
8,O=C(/C=C/c1ccc2c(c1)OCO2)N1CCCCC1 [ilepcimide],66%
9,C[C@H](CS)C(=O)N1CCC[C@H]1C(=O)O [captopril],130% and 289%
10,CC(C)COCC(CN(Cc1ccccc1)c1ccccc1)N1CCCC1 (configuration not stated) [bepridil],347% and 305%
11,O=C(O)c1ccccc1Nc1cc(Cl)ccc1C(=O)O [lobenzarit],237%
12,C[C@]12CCC(=O)C=C1CC[C@H]1[C@@H]3CC[C@](O)(C(=O)CO)[C@@]3(C)C[C@H](O)[C@@]12F [fludrocortisone],249%
13,CC(C)(C)C(=O)NCCCC(=O)O [pivagabine],230%
14,C[C@]12CCC(=O)C=C1CC[C@@H]1[C@@H]2[C@@H](O)C[C@]2(C=O)[C@@H](C(=O)CO)CC[C@@H]12 [aldosterone],159%
15,CC(=O)OC/C=C(C)/C=C/C=C(C)/C=C/C1=C(C)CCCC1(C)C [Vitamin A acetate],299%
16,O=c1[nH]c(=O)n([C@H]2C[C@H](O)[C@@H](CO)O2)cc1/C=C/Br [brivudine],139%
17,N=C(N=C(N)N)N1CCOCC1,226%
18,CN(C)CC/C=C1/c2ccccc2Sc2ccc(Cl)cc21 [chlorprothixene],400%
19,CCCCNc1c(C(=O)OCC)c(C)nc2c1cnn2CC [tracazolate],110%
20,Cc1cc(Cc2cnc(N)nc2N)c2cccnc2c1N(C)C [baquiloprim],173%
21,CN1[C@@H]2CC[C@H]1C[C@@H](OC(c1ccccc1)c1ccccc1)C2 [benzatropine],177%
22,CC(O)(P(=O)(O)O)P(=O)(O)O,393%
23,C[C@]12CCC(=O)C=C1CC[C@@H]1[C@@H]2C(=O)C[C@@]2(C)[C@H]1CC[C@]2(O)C(=O)CO [cortisone],81.3%
24,CN(CC1(C)CCCO1)S(=O)(=O)c1ccc(Cl)c(S(N)(=O)=O)c1 (configuration not stated) [mefruside],242%
25,COC(=O)C1=C(C)NC(C)=C(C(=O)OCC(C)C)C1c1ccccc1[N+](=O)[O-] (configuration not stated) [nisoldipine],218% and 188%
26,CN1C(C(=O)Nc2ccccn2)=C(O)c2ccccc2S1(=O)=O [Piroxicam],219%
27,C=CCOc1ccccc1OCC(O)CNC(C)C (configuration not stated) [oxprenolol],206%

# Retrieved by compound from the entries so far:
row,Structure (SMILES),percent viability
1,CCCCC[C@H](O)/C=C/[C@H]1[C@H](O)CC(=O)[C@@H]1C/C=C\CCCC(=O)O [dinoprostone],183% and 242%
14,C[C@]12CCC(=O)C=C1CC[C@@H]1[C@@H]2[C@@H](O)C[C@]2(C=O)[C@@H](C(=O)CO)CC[C@@H]12 [aldosterone],159%
